PMC9037752 (Frontiers in Nutrition, 2022)

Tested on: A7r5 cells
Experiment: RNA-Seq transcriptomics of Ang II-stimulated VSMCs
Assay type: cell-based, rat
[1] = FPQYLQYPY vs Ang II-treated group, GO enrichment analysis

## FPQYLQYPY [FPQYLQYPY, also synthesized]
FPQYLQYPY treated group vs Ang II-treated group, 24 h, P < 0.05
  Number of differentially expressed genes (DEGs): 342
[1]
  Number of significantly downregulated genes: 117
  Number of significantly upregulated genes: 212

Ends that are not written are not given here.
